The name of at least one read-out is uncertain.
Experiment: Example 7: effect of body weight on plasma tazarotenic acid Cmax and AUC
Assay type: in vivo, human
Conditions: single daily dose of 6 mg of tazarotene; p>0.05
Procedure: The LC-MS/MS test for simultaneous detection of tazarotene and tazarotenic acid may be run as follows. One ml of plasma (EDTA-treated) is diluted with 1.0 ml of water. Diluted plasma is extracted using solid phase extraction (SPE) on a C18 cartridge. The eluate is evaporated, reconstituted in a water/methanol-based mobile phase, and injected onto a 4.6×50 mm, 3 μm pore size C-8 reverse phase high pressure liquid chromatography (HPLC) column (Agilent, Wilmington, Del.). Compounds are gradient-eluted at 1.2 mL/min and detected using an API 3000 triple quadrupole mass spectrometer with an Atmospheric Pressure Chemical Ionization (APCI) source (PE-Sciex, Concord, Ontario, Canada). Molecular reaction monitoring enhances the sensitivity and selectivity of this assay by collisionally dissociating the protonated molecules for the analyte and an internal standard thereby forming the product ions. The specific precursor-product ion pair monitored are m/z 352→324 for tazarotene, m/z 359→331 for the tazarotene internal standard, m/z 324→294 for tazarotenic acid, and m/z 331+298 for the tazarotenic acid internal standard. The lower limit of quantitation at assay range tested is 0.1 ng/mL, with a coefficient of variation and deviation from nominal concentration of <15%. […]

For `CC1(C)CCSc2ccc(C#Cc3ccc(C(=O)O)cn3)cc21` [tazarotenic acid], the “effect of body weight on systemic tazarotenic acid exposure (plasma Cmax and AUC)” value was “no effect of body weight”.

Reference: patent US20050027003A1, “Methods of therapeutic treatment using retinoids with reduced side effects” (Allergan, Inc., priority 2003, published 2005)
